Paper PMC12704761, “RAD51AP1 is a versatile RAD51 modulator” (Proceedings of the National Academy of Sciences of the …, 2025)
No constants are given. Whether binding was seen depends on the method and setting. Some entries that bind do so weakly or less than the wild type.

T1: RAD51AP1 (RAD51 associated protein 1), full-length wild type (UniProt Q96B01)
T1 sequence: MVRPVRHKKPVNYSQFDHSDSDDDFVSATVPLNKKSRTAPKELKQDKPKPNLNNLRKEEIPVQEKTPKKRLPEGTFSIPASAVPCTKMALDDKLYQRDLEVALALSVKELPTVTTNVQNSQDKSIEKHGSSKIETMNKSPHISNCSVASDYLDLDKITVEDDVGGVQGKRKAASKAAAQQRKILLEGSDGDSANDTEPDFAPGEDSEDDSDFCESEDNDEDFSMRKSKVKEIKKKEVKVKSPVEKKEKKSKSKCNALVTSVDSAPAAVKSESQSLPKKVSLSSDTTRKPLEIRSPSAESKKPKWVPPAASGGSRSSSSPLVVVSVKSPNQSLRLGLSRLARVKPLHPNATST

T2: RAD51AP1 Site-NC double mutant, full-length (UniProt Q96B01)
T2 sequence: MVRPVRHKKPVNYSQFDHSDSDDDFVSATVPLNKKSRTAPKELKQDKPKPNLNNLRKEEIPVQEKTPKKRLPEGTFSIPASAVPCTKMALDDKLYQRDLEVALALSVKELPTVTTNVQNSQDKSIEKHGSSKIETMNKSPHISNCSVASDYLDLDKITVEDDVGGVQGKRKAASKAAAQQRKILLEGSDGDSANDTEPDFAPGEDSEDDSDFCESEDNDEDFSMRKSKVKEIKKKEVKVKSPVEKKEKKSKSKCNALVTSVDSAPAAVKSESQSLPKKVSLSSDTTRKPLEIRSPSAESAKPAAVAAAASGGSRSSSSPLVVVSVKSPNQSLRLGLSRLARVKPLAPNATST


Columns and labels:
[1] = target: T1, RAD51AP1 (RAD51 associated protein 1), full-length wild type; assay: pull-down; full-length RAD51AP1 (2 µM) with RAD51 or RAD51-F86E (2 µM), with and without ATP; both purified
[2] = target: T2, RAD51AP1 Site-NC double mutant, full-length; assay: pull-down; His-tagged full-length RAD51AP1 (1 µM) immobilised on magnetic cobalt resin, RAD51 (1 µM) in pull-down buffer with ATP and Mg2+, 37 °C, 5 min; SDS-PAGE of supernatant and eluate; both purified
[3] = target: T1, RAD51AP1 (RAD51 associated protein 1), full-length wild type; assay: condition: only without ATP and Mg2+ in the pull-down buffer; pull-down; His-tagged full-length RAD51AP1 (1 µM) on cobalt resin, RAD51 (1 µM), ATP and Mg2+ omitted from the pull-down buffer; both purified

Row | binding [1] | binding [2] | binding [3] | Molecule
1 | no binding (tested: 2 μM) | – | – | RAD51-F86E (from UniProt Q06609 1-339)
2 | – | binds weakly | no binding | RAD51 recombinase (natural protein, RAD51 recombinase, wild type; expressed from the pCH1-derived plasmid pJ9; In the cryo-EM samples it stood as a filament on ssDNA with Ca2+-ATP, Mg2+-ATP or Mg2+-ADP; the introduction speaks of the human genome and the discussion sets 'mouse proteins' of earlier work apart; source: E. coli BL21 (DE3), coexpressed with His-MBP-BRC4 and GroEL, purified (HisTrap, HiTrap Heparin, HiTrap Q)) MAMQMQLEANADTSVEEESFGPQPISRLEQCGINANDVKKLEEAGFHTVEAVAYAPKKELINIKGISEAKADKILAEAAKLVPMGFTTATEFHQRRSEIIQITTGSKELDKLLQGGIETGSITEMFGEFRTGKTQICHTLAVTCQLPIDRGGGEGKAMYIDTEGTFRPERLLAVAERYGLSGSDVLDNVAYARAFNTDHQTQLLYQASAMMVESRYALLIVDSATALYRTDYSGRGELSARQMHLARFLRMLLRLADEFGVAVVITNQVVAQVDGAAMFAADPKKPIGGNIIAHASTTRLYLRKGRGETRICKIYDSPCLPEAEAMFAINADGVGDAKD
